From patent US7977064B2, “Disheveled PDZ modulators” (Genentech, Inc., priority 2006, dated 2011)
Some entries share one result that the patent states for a list of compounds. No end group written: not given here.

Biological target: T1, Dvl2PDZ (Homo sapiens, UniProt O14641)
T1 construct: protein fragments spanning amino acids 248-364 of the full-length Dvl2 were produced; made in house; host or cells: E. coli (pGEX system)
T1 sequence (O14641 248-364): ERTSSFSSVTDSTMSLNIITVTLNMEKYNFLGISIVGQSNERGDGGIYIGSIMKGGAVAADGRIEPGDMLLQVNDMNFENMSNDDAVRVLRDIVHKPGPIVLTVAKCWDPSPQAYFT
Assay: Competition ELISA, peptides binding to Dvl2PDZ
Conditions: compared with peptides without the extension
Text: Many methods are known and can be used to identify the binding affinities of binding molecules (e.g. peptides, proteins, small molecules, etc.); for example, binding affinities can be determined as IC50 values using competition ELISAs. The IC50 value is defined as the concentration of binder which blocks 50% of Dvl PDZ domain binding to a ligand. For example, in solid phase assays, assay plates may be prepared by coating microwell plates (preferably treated to efficiently adsorb protein) with neutravidin, avidin or streptavidin. […] After further washing, the binding reactions are detected, often with an antibody recognizing the non-PDZ fusion partner and a labeled (such as horseradish peroxidase (HRP), alkaline phosphatase (AP), or a fluorescent tag such as fluorescein) secondary antibody recognizing the primary antibody. The plates are then developed with the appropriate substrate (depending on the label) and the signal quantified, such as using a spectrophotometric plate reader. […] Thus the ability of the various molecules to inhibit PDZ domain from binding a known PDZ domain binder can be measured.
Affinity assays—The binding affinities of peptides for Dvl2PDZ were determined as IC50 values using a competition ELISA, as previously described. […]

| Substance | Enhancement of binding affinity by Trp extension at -6 position |
| --- | --- |
| Ac-WKWYGWF [Peptide D4, W K W Y G W F] | up to 10 fold |
| Ac-WKWYGWL [Peptide D3, W K W Y G W L] | up to 10 fold |
